PubChem BioAssay AID743454, Peter MacCallum Cancer Centre – 2014

- Assay: 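Knock-downs lowering viability or raising caspase 3/7 activity in vorinostat-treated resistant cells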 (primary screen)
- System: human HCT116-VR colon cancer cells, selected for vorinostat resistance
- Reagents: siRNA pool against human genes, 40 nM siRNA pool
- Duration: vorinostat for 24 h, read-out about 72 h after transfection
- Treatment: vorinostat at 2.5 µM final
- Measured: 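Cell viability by CellTiter-Fluor and caspase 3/7 activity by luminescence, each scaled to mock wells per plate, duplicates averaged, then robust z-scored over all plates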
- Reading the numbers: viability robust z-score: higher = more viable cells than screen typical; caspase robust z-score: higher = more caspase 3/7 activity than screen typical
- Hit rule: 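Hits are knock-downs in viability class RV1/RV2 or caspase class CA1/CA2, excluding ones that killed cells in the no-drug cell-count arm; hits then retested with single siRNAs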
The whole screen tested about 18,000 reagents; this is a part drawn at random. Of all reagents, 450 (2.5%) were called active. 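Single biological run; no consistent viability z cut-off exists, so the class columns, not z-scores, define the calls.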

Gene	viability hit class	caspase hit class	viability robust z-score	caspase robust z-score	call
PRY (GeneID 9081)	no change	no change	-0.02	0.85	inactive
HOXB13 (GeneID 10481)	no change	no change	-1.22	2.95	inactive
KRTAP5-10 (GeneID 387273)	no change	no change	0.14	-0.94	inactive
H2AC1 (GeneID 221613)	no change	no change	0.08	0.88	inactive
SNX32 (GeneID 254122)	no change	no change	0.2	1.02	inactive
GDPD3 (GeneID 79153)	no change	no change	0.19	-0.46	inactive
COMMD5 (GeneID 28991)	no change	no change	0.36	-1.18	inactive
ST8SIA6 (GeneID 338596)	no change	no change	0.76	-0.5	inactive
TMEM143 (GeneID 55260)	no change	no change	0.88	-0.37	inactive
NEDD4L (GeneID 23327)	no change	no change	0.54	-0.86	inactive
JPH4 (GeneID 84502)	no change	no change	0.22	2.48	inactive
ARHGEF9 (GeneID 23229)	no change	no change	0.88	-0.94	inactive
ATXN10 (GeneID 25814)	no change	no change	-0.57	-0.17	inactive
GNA12 (GeneID 2768)	no change	no change	-0.84	5.03	inactive
PSMG2 (GeneID 56984)	no change	no change	1.35	1.45	inactive
TOMM20L (GeneID 387990)	no change	no change	0.34	-0.2	inactive
BGLAP (GeneID 632)	no change	no change	-0.84	0.92	inactive
DUSP9 (GeneID 1852)	no change	no change	0.32	2.96	inactive
SPRTN (GeneID 83932)	no change	no change	0.6	0.22	inactive
SNRPA (GeneID 6626)	no change	no change	-1.46	1.61	inactive
GPD1 (GeneID 2819)	no change	no change	0.48	0.48	inactive
NMRK2 (GeneID 27231)	no change	no change	0.15	-0.74	inactive
TBC1D10C (GeneID 374403)	no change	no change	-0.27	-1.24	inactive
TMEM17 (GeneID 200728)	no change	no change	0.18	1.02	inactive
SETD9 (GeneID 133383)	no change	no change	0.77	1.5	inactive
BSND (GeneID 7809)	no change	no change	-0.44	0.55	inactive
EXO5 (GeneID 64789)	no change	no change	0.7	0	inactive
GALNT13 (GeneID 114805)	no change	no change	-0.03	1.94	inactive
CALHM4 (GeneID 221301)	no change	no change	0.54	0.45	inactive
AMOTL2 (GeneID 51421)	no change	no change	-0.7	-1.24	inactive
TM7SF3 (GeneID 51768)	no change	no change	2.2	-0.69	inactive
DEK (GeneID 7913)	no change	no change	1.41	0.08	inactive
RAPGEF1 (GeneID 2889)	no change	no change	-0.26	-0.7	inactive
ZNF551 (GeneID 90233)	no change	no change	-1.53	-0.08	inactive
RND2 (GeneID 8153)	no change	no change	-1.4	-0.46	inactive
SGK3 (GeneID 23678)	no change	no change	1.17	-0.18	inactive
RPL34 (GeneID 6164)	no change	no change	-4.34	-1	inactive
DOCK4 (GeneID 9732)	no change	no change	-0.53	0.52	inactive
RTL9 (GeneID 57529)	no change	no change	0.86	-0.4	inactive
ESS2 (GeneID 8220)	no change	no change	0.2	0.14	inactive
SNRNP200 (GeneID 23020)	no change	no change	-3.9	1.2	inactive
ZNF513 (GeneID 130557)	no change	no change	1.04	1.26	inactive
BABAM1 (GeneID 29086)	no change	no change	1.34	0.69	inactive
OR2T10 (GeneID 127069)	no change	no change	0.34	1.26	inactive
DPY19L4 (GeneID 286148)	no change	no change	1.48	0.24	inactive
HSD17B3 (GeneID 3293)	no change	no change	0.94	-0.37	inactive
OTUB2 (GeneID 78990)	no change	CA2 (caspase activation)	-0.06	5.19	active
TRMT1L (GeneID 81627)	no change	no change	0.75	1.23	inactive
FBXO36 (GeneID 130888)	no change	no change	0.29	0.45	inactive
ACBD3 (GeneID 64746)	no change	no change	-0.22	1.23	inactive
CBX4 (GeneID 8535)	no change	no change	-2.36	3.8	inactive
COX6B2 (GeneID 125965)	no change	no change	0.22	-0.88	inactive
ALK (GeneID 238)	no change	no change	-1.7	2.73	inactive
HPS3 (GeneID 84343)	no change	no change	0.44	-0.46	inactive
PUM2 (GeneID 23369)	no change	no change	1.4	-0.63	inactive
PIK3R6 (GeneID 146850)	no change	no change	-0.96	2.48	inactive
SATB1 (GeneID 6304)	no change	no change	1.7	0.3	inactive
HID1 (GeneID 283987)	no change	no change	-0.38	-0.52	inactive
ATG4C (GeneID 84938)	no change	no change	-0.85	0.92	inactive
ANTKMT (GeneID 65990)	no change	no change	-1.72	0.88	inactive
TINF2 (GeneID 26277)	no change	no change	-1.65	0.27	inactive
HABP2 (GeneID 3026)	no change	no change	-0.08	-0.26	inactive
CD180 (GeneID 4064)	no change	no change	-1.18	2.9	inactive
NAB1 (GeneID 4664)	no change	no change	-1.27	2.86	inactive
ANKRD44 (GeneID 91526)	no change	no change	0.6	-0.52	inactive
CAPS2 (GeneID 84698)	no change	no change	0.4	-0.8	inactive
ATP7A (GeneID 538)	no change	no change	-0.82	-0.68	inactive
OBP2B (GeneID 29989)	no change	no change	0.38	3.33	inactive
LRRC49 (GeneID 54839)	no change	no change	1.62	0.1	inactive
PNMA1 (GeneID 9240)	no change	no change	0.92	-0.84	inactive
MED19 (GeneID 219541)	no change	no change	0.87	-0.44	inactive
DGCR8 (GeneID 54487)	no change	no change	-0.62	-0.13	inactive
MROH5 (GeneID 389690)	no change	CA1 (caspase activation)	0.9	6.08	active

A few values from the entries so far.
Value of RPL34 (GeneID 6164) in “caspase hit class”: no change
Value for AMOTL2 (GeneID 51421) in “caspase robust z-score”: -1.24
Entry of ZNF551 (GeneID 90233) under “viability hit class”: no change
TMEM17 (GeneID 200728), viability robust z-score = 0.18
